In all, about 33,000 sequences were measured (“E-score (-0.5 to 0.5)”: median about -0.0034, highest 2% from about 0.25 on). Some of the results follow.
Each sequence was assayed against T1, Yap3 (UniProt P38749) (assay: PBM E-score (8-mer binding enrichment) (E-score (-0.5 to 0.5)); higher = stronger / more preferred TF binding). Details: protein concentration: 100 nM; construct: GST-full length.
T1 sequence: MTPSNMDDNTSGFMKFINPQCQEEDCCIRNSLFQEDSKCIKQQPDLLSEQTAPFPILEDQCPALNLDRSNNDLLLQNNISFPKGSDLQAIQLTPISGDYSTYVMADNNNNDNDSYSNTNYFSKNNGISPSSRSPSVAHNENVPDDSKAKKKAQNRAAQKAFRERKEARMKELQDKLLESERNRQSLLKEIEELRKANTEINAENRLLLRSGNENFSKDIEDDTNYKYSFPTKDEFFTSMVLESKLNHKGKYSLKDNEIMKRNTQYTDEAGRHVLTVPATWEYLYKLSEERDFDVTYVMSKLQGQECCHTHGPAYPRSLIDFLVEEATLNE
Procedure, shortened: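 E-scores (a modified Wilcoxon-Mann-Whitney statistic) were assigned by the Universal PBM Analysis Suite to every ungapped eight-base word pooled with its reverse complement. The input came from universal all-10-mer Agilent arrays made double-stranded by primer extension and probed with GST-tagged yeast transcription factors at about 100-200 nM. Fluorescent anti-GST detected bound protein, and masliner normalised the scans.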

| Sequence | PBM E-score |
| --- | --- |
| TTATGCAA | 0.0592 |
| AAGTACGC | 0.0601 |
| ACGCTGGC | -0.0887 |
| AACAGTAC | 0.0883 |
| CTTGAGGC | -0.122 |
| GTGACAGA | -0.0285 |
| ACTGAACG | -0.0995 |
| GAAATCTA | 0.146 |
| AGCACAGA | 0.0779 |
| AGACTTTA | -0.181 |
| AGGGAATG | -0.0617 |
| ATGTCTGG | 0.0998 |
| AGAATTCT | 0.124 |
| CCTGTCGC | -0.0531 |
| AGACAGTG | -0.0416 |
| CCTTTTTC | 0.141 |
| GTAGTTTA | 0.203 |
| GAATAGCA | 0.109 |
| AAAAAAAC | 0.151 |
| ACCCCGTA | 0.0378 |
| GAAACGAC | 0.123 |
| GCTGCACA | -0.104 |

| Sequence | PBM E-score |
| --- | --- |
| ACTTGAGG | -0.0703 |
| CAAGGACG | -0.26 |
| ACCTAACA | 0.109 |
| AGTTGGGG | 0.0985 |
| CAAAAGGA | -0.0326 |
| CGCACATA | -0.0836 |
| AGAGAGCT | -0.224 |
| CCAGGCCG | -0.152 |
| GACGAACA | -0.0459 |
| ATTCAAGA | -0.0517 |
| GGCAGAAA | 0.2 |
| CGCTAGTC | -0.344 |
| AAGCAATA | -0.00615 |
| ATAGGCCC | -0.14 |
| AACGGCTA | 0.104 |
| CTCGTCTA | -0.117 |
| AAGTACAC | 0.072 |
| GTCCTCAC | -0.0019 |
| ACATTAAC | 0.015 |
| GTTTTTCA | 0.108 |
| ACGAGGAT | -0.125 |
| AGTTCCGC | 0.012 |

Reformatted as tab-separated lines: part of the list above
Sequence	PBM E-score
ACTTGAGG	-0.0703
CAAGGACG	-0.26

Continued:

| Sequence | PBM E-score |
| --- | --- |
| AGCGTCCT | -0.156 |
| CTCCTTAC | 0.0321 |
| TGACTCAA | -0.0905 |
| ATCCAAAT | 0.0146 |
| ATGGGATA | 0.035 |
| GAAAACCA | -0.0204 |
| ATCGCATA | 0.143 |
| ACTGCTCA | 0.0439 |
| AGATTCCG | 0.0687 |
| GGTCCTTA | 0.0785 |
| GCGGGCCC | -0.33 |
| ATTCCCAA | 0.193 |
| CCCTCTTC | -0.231 |
| ACCGCCTA | -0.0887 |
| ACAGCACC | -0.199 |
| AGTTATGC | 0.166 |
| CCATTTTC | 0.167 |
| CATATTAA | 0.299 |
| ACAGCCGG | -0.0252 |
| ACCAAGCA | 0.093 |
| GGTTTGGA | 0.0533 |
| CTAATTCA | 0.112 |

Part of the list above, as tab-separated lines:
Sequence	PBM E-score
AGATTCCG	0.0687
CCCTCTTC	-0.231

Further results:

| Sequence | PBM E-score |
| --- | --- |
| CGTACAAG | -0.0723 |
| CGCATGTA | 0.0255 |
| ATGTCGTG | -0.0787 |
| AGTTATAA | 0.153 |
| CAGTGAAA | -0.0336 |
| ATGTCTGA | 0.137 |
| AAGCTCGA | 0.103 |
| ACTGTTAC | 0.171 |
| CCGCATAC | 0.052 |
| GGTCAGCA | -0.0315 |
| GCGTATAC | -0.0519 |
| ATCCAGCA | 0.051 |
| ATGGAGTA | 0.116 |
| AGGAGAAC | -0.105 |
| CGTTGTAC | 0.0708 |
| AATTCTGA | 0.117 |
| GTCCTCAA | 0.0939 |
| CGGGTCCC | -0.454 |
| GTGAGGGA | -0.0903 |
| TAAGCACA | 0.179 |

A different layout for some results above.
Sequence | PBM E-score
ATGTCTGA | 0.137
AAGCTCGA | 0.103

From the supplement of paper PMC3334620
